Reference: the supplement of paper PMC8728848
Some of the results follow.

Assays:
Test in all cases: glycan array binding signal (z-score within array); higher = stronger binding
Conditions in all cases: glycan notation: IUPAC condensed, linker removed
[1] = molecular target: Neu5Ac(a2-3)Gal(b1-4)Glc
Outline: (§1)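 Arrays were curated from the Consortium for Functional Glycomics database, 3228 in total, and kept only where the protein sequence was available. Binding is expressed as a within-array Z-score. This score was averaged across arrays of the same protein sequence at different concentrations or buffers and across linkers, and negative values can be read as non-binding.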

[2] = molecular target: Neu5Ac(a2-3)Gal(b1-4)GlcNAc
Outline: as §1

[3] = molecular target: Neu5Ac(a2-3)Gal(b1-4)GlcNAc(b1-2)Man
Outline: as §1

[4] = molecular target: Neu5Ac(a2-3)Gal(b1-4)GlcNAc(b1-2)Man(a1-3)[GlcNAc(b1-4)][Neu5Ac(a2-3)Gal(b1-4)GlcNAc(b1-2)Man(a1-6)]Man(b1-4)GlcNAc(b1-4)GlcNAc
Outline: as §1

[5] = molecular target: Neu5Ac(a2-3)Gal(b1-4)GlcNAc(b1-2)Man(a1-3)[Neu5Ac(a2-3)Gal(b1-4)GlcNAc(b1-2)Man(a1-6)]Man(b1-4)GlcNAc(b1-4)GlcNAc
Outline: as §1

[6] = molecular target: Neu5Ac(a2-3)Gal(b1-4)GlcNAc(b1-2)Man(a1-3)[Neu5Ac(a2-3)Gal(b1-4)GlcNAc(b1-2)Man(a1-6)]Man(b1-4)GlcNAc(b1-4)[Fuc(a1-6)]GlcNAc
Outline: as §1

[7] = molecular target: Neu5Ac(a2-3)Gal(b1-4)GlcNAc(b1-2)Man(a1-3)[Neu5Ac(a2-6)Gal(b1-4)GlcNAc(b1-2)Man(a1-6)]Man(b1-4)GlcNAc(b1-4)GlcNAc
Outline: as §1

[8] = molecular target: Neu5Ac(a2-3)Gal(b1-4)GlcNAc(b1-2)[Neu5Ac(a2-3)Gal(b1-4)GlcNAc(b1-4)]Man(a1-3)[GlcNAc(b1-4)][Neu5Ac(a2-3)Gal(b1-4)GlcNAc(b1-2)[Neu5Ac(a2-3)Gal(b1-4)GlcNAc(b1-6)]Man(a1-6)]Man(b1-4)GlcNAc(b1-4)GlcNAc
Outline: as §1

[9] = molecular target: Neu5Ac(a2-3)Gal(b1-4)GlcNAc(b1-2)[Neu5Ac(a2-3)Gal(b1-4)GlcNAc(b1-4)]Man(a1-3)[GlcNAc(b1-4)][Neu5Ac(a2-3)Gal(b1-4)GlcNAc(b1-4)Man(a1-6)]Man(b1-4)GlcNAc(b1-4)GlcNAc
Outline: as §1

[10] = molecular target: Neu5Ac(a2-3)Gal(b1-4)GlcNAc(b1-2)[Neu5Ac(a2-3)Gal(b1-4)GlcNAc(b1-6)]Man(a1-6)[Neu5Ac(a2-3)Gal(b1-4)GlcNAc(b1-2)Man(a1-3)]Man(b1-4)GlcNAc(b1-4)GlcNAc
Outline: as §1

[11] = molecular target: Neu5Ac(a2-3)Gal(b1-4)GlcNAc(b1-2)[Neu5Ac(a2-3)Gal(b1-4)GlcNAc(b1-6)]Man(a1-6)[Neu5Ac(a2-3)Gal(b1-4)GlcNAc(b1-2)Man(a1-3)][GlcNAc(b1-4)]Man(b1-4)GlcNAc(b1-4)GlcNAc
Outline: as §1

[12] = molecular target: Neu5Ac(a2-3)Gal(b1-4)GlcNAc(b1-3)Gal
Outline: as §1

[13] = molecular target: Neu5Ac(a2-3)Gal(b1-4)GlcNAc(b1-3)Gal(b1-3)GlcNAc
Outline: as §1

[14] = molecular target: Neu5Ac(a2-3)Gal(b1-4)GlcNAc(b1-3)Gal(b1-4)GlcNAc
Outline: as §1

[15] = molecular target: Neu5Ac(a2-3)Gal(b1-4)GlcNAc(b1-3)Gal(b1-4)GlcNAc(b1-2)Man(a1-3)[Neu5Ac(a2-3)Gal(b1-4)GlcNAc(b1-3)Gal(b1-4)GlcNAc(b1-2)Man(a1-6)]Man(b1-4)GlcNAc(b1-4)GlcNAc
Outline: as §1

[16] = molecular target: Neu5Ac(a2-3)Gal(b1-4)GlcNAc(b1-3)Gal(b1-4)GlcNAc(b1-3)Gal(b1-4)GlcNAc
Outline: as §1

[17] = molecular target: Neu5Ac(a2-3)Gal(b1-4)GlcNAc(b1-3)Gal(b1-4)GlcNAc(b1-3)Gal(b1-4)GlcNAc(b1-2)Man(a1-3)[Neu5Ac(a2-3)Gal(b1-4)GlcNAc(b1-3)Gal(b1-4)GlcNAc(b1-3)Gal(b1-4)GlcNAc(b1-2)Man(a1-6)]GalNAc
Outline: as §1

[18] = molecular target: Neu5Ac(a2-3)Gal(b1-4)GlcNAc(b1-3)Gal(b1-4)GlcNAc(b1-3)GalNAc
Outline: as §1

[19] = molecular target: Neu5Ac(a2-3)Gal(b1-4)GlcNAc(b1-3)Gal(b1-4)GlcNAc(b1-3)[Neu5Ac(a2-3)Gal(b1-4)GlcNAc(b1-3)Gal(b1-4)GlcNAc(b1-6)]GalNAc
Outline: as §1

[20] = molecular target: Neu5Ac(a2-3)Gal(b1-4)GlcNAc(b1-3)Gal(b1-4)GlcNAc(b1-6)[Gal(b1-3)]GalNAc
Outline: as §1

[21] = molecular target: Neu5Ac(a2-3)Gal(b1-4)GlcNAc(b1-3)Gal(b1-4)[Fuc(a1-3)]GlcNAc
Outline: as §1

[22] = molecular target: Neu5Ac(a2-3)Gal(b1-4)GlcNAc(b1-3)GalNAc
Outline: as §1

[23] = molecular target: Neu5Ac(a2-3)Gal(b1-4)GlcNAc(b1-3)[Neu5Ac(a2-3)Gal(b1-4)GlcNAc(b1-6)]GalNAc
Outline: as §1

[24] = molecular target: Neu5Ac(a2-3)Gal(b1-4)GlcNAc(b1-6)GalNAc
Outline: as §1

[25] = molecular target: Neu5Ac(a2-3)Gal(b1-4)GlcNAc(b1-6)[Gal(b1-3)]GalNAc
Outline: as §1

[26] = molecular target: Neu5Ac(a2-3)Gal(b1-4)GlcNAc(b1-6)[Neu5Ac(a2-3)Gal(b1-3)]GalNAc
Outline: as §1

[27] = molecular target: Neu5Ac(a2-3)Gal(b1-4)GlcNAc6S
Outline: as §1

[28] = molecular target: Neu5Ac(a2-3)Gal(b1-4)[Fuc(a1-3)]GlcNAc
Outline: as §1

[29] = molecular target: Neu5Ac(a2-3)Gal(b1-4)[Fuc(a1-3)]GlcNAc(b1-2)Man
Outline: as §1

[30] = molecular target: Neu5Ac(a2-3)Gal(b1-4)[Fuc(a1-3)]GlcNAc(b1-3)Gal
Outline: as §1

[31] = molecular target: Neu5Ac(a2-3)Gal(b1-4)[Fuc(a1-3)]GlcNAc(b1-3)Gal(b1-4)GlcNAc
Outline: as §1

[32] = molecular target: Neu5Ac(a2-3)Gal(b1-4)[Fuc(a1-3)]GlcNAc(b1-3)Gal(b1-4)[Fuc(a1-3)]GlcNAc(b1-3)Gal(b1-4)[Fuc(a1-3)]GlcNAc
Outline: as §1

[33] = molecular target: Neu5Ac(a2-3)Gal(b1-4)[Fuc(a1-3)]GlcNAc(b1-3)GalNAc
Outline: as §1

[34] = molecular target: Neu5Ac(a2-3)Gal(b1-4)[Fuc(a1-3)]GlcNAc(b1-6)[Gal(b1-3)]GalNAc
Outline: as §1

[35] = molecular target: Neu5Ac(a2-3)Gal(b1-4)[Fuc(a1-3)]GlcNAc(b1-6)[Neu5Ac(a2-3)Gal(b1-3)]GalNAc
Outline: as §1

[36] = molecular target: Neu5Ac(a2-3)Gal(b1-4)[Fuc(a1-3)]GlcNAc6S
Outline: as §1

[37] = molecular target: Neu5Ac(a2-3)Gal6S(b1-4)GlcNAc
Outline: as §1

[38] = molecular target: Neu5Ac(a2-3)Gal6S(b1-4)[Fuc(a1-3)]GlcNAc
Outline: as §1

B1: Clec18Av1 (Homo sapiens), A5D8T8 (protein)
chain: MLHPETSPGRGHLLAVLLALLGTAWAEVWPPQLQEQAPMAGALNRKESFLLLSLHNRLRSWVQPPAADMRRLDWSDSLAQLAQARAALCGTPTPSLASGLWRTLQVGWNMQLLPAGLVSFVEVVSLWFAEGQRYSHAAGECARNATCTHYTQLVWATSSQLGCGRHLCSAGQAAIEAFVCAYSPRGNWEVNGKTIVPYKKGAWCSLCTASVSGCFKAWDHAGGLCEVPRNPCRMSCQNHGRLNISTCHCHCPPGYTGRYCQVRCSLQCVHGRFREEECSCVCDIGYGGAQCATKVHFPFHTCDLRIDGDCFMVSSEADTYYRARMKCQRKGGVLAQIKSQKVQDILAFYLGRLETTNEVIDSDFETRNFWIGLTYKTAKDSFRWATGEHQAFTSFAFGQPDNHGFGNCVELQASAAFNWNDQRCKTRNRYICQFAQEHISRWGPGS
glycan array binding signal (z-score) [1]: -0.053
glycan array binding signal (z-score) [2]: -0.844
glycan array binding signal (z-score) [3]: 0.838
glycan array binding signal (z-score) [4]: -0.847
glycan array binding signal (z-score) [5]: 1.12
glycan array binding signal (z-score) [6]: -0.84
glycan array binding signal (z-score) [7]: 1.84
glycan array binding signal (z-score) [8]: -0.868
glycan array binding signal (z-score) [9]: -0.8
glycan array binding signal (z-score) [10]: 0.446
glycan array binding signal (z-score) [11]: -0.864
glycan array binding signal (z-score) [12]: -0.867
glycan array binding signal (z-score) [13]: -0.761
glycan array binding signal (z-score) [14]: -0.802
glycan array binding signal (z-score) [15]: -0.163
glycan array binding signal (z-score) [16]: -0.814
glycan array binding signal (z-score) [17]: 0.256
glycan array binding signal (z-score) [18]: -0.871
glycan array binding signal (z-score) [19]: -0.55
glycan array binding signal (z-score) [20]: 0.766
glycan array binding signal (z-score) [21]: -0.864
glycan array binding signal (z-score) [22]: -0.884
glycan array binding signal (z-score) [23]: -0.861
glycan array binding signal (z-score) [24]: 1.49
glycan array binding signal (z-score) [25]: 1.45
glycan array binding signal (z-score) [26]: -0.857
glycan array binding signal (z-score) [27]: -0.509
glycan array binding signal (z-score) [28]: -0.677
glycan array binding signal (z-score) [29]: -0.846
glycan array binding signal (z-score) [30]: -0.84
glycan array binding signal (z-score) [31]: 0.154
glycan array binding signal (z-score) [32]: -0.719
glycan array binding signal (z-score) [33]: 0.088
glycan array binding signal (z-score) [34]: 0.892
glycan array binding signal (z-score) [35]: 0.921
glycan array binding signal (z-score) [36]: -0.818
glycan array binding signal (z-score) [37]: -0.585
glycan array binding signal (z-score) [38]: -0.832
